From PMC13132431
No constants are given. Whether binding was seen depends on the method and setting. In cells and extracts the contact can be indirect. These calls come from enrichment with a bait or labelling near it, and not all partners need be listed. For some of these results: No binding means not detected with the bait. Tags and fused reporters may be left off the sequences shown. Blank lines part the entries; values can stand above or below the binder they belong to.

Columns and labels:
Assay in all cases: affinity purification with mass spectrometry; GFP-trap agarose beads on nuclear extracts of transgenic plants expressing 35Sp-TRB1 or 35Sp-TRB3 fused to YFP/GFP; 35Sp-EDS1 fusion as background control; extracts treated with DNase I and RNase A; 20 mM Tris-HCl pH 7.4, 150 mM NaCl, 0.1% Triton X-100, 2 mM EDTA, 4°C, 2.5 h; biological triplicates; label-free quantification, ANOVA with HSD, FDR < 0.05
[1] = target: T1, TELOMERE REPEAT BINDING FACTOR 1 (TRB1) fused to YFP, expressed under the Cauliflower Mosaic Virus 35S promoter (Arabidopsis thaliana) (UniProt Q8VWK4)
T1 sequence: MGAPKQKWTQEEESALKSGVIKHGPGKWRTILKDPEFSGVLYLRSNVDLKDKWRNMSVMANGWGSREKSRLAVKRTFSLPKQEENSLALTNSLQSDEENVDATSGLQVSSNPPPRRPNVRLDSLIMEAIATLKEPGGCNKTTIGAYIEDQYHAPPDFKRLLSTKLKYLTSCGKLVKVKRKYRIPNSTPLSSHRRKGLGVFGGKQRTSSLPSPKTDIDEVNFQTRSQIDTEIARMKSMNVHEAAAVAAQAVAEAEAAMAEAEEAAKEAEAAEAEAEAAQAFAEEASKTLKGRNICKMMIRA

[2] = target: T2, TELOMERE REPEAT BINDING FACTOR 3 (TRB3) fused to YFP, expressed under the Cauliflower Mosaic Virus 35S promoter (Arabidopsis thaliana), Q9M2X3; conditions: remark: other sources report otherwise
T2 chain: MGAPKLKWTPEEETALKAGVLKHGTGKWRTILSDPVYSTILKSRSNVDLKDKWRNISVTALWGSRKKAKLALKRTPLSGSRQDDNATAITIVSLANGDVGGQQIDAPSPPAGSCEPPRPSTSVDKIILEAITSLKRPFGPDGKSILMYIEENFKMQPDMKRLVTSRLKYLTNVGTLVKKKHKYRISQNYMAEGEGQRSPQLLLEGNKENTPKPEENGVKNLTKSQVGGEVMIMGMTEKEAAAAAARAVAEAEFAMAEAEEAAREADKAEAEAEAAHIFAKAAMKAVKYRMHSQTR

[3] = target: T3, TELOMERE REPEAT BINDING FACTOR 1 (TRB1) fused to YFP, expressed under the Cauliflower Mosaic Virus 35S promoter (Arabidopsis thaliana), Q8VWK4; conditions: remark: other sources report otherwise
T3 chain: T1 sequence

[4] = target: T4, TELOMERE REPEAT BINDING FACTOR 3 (TRB3) fused to YFP, expressed under the Cauliflower Mosaic Virus 35S promoter (Arabidopsis thaliana) (UniProt Q9M2X3)
T4 sequence: T2 chain

B3: VIVIPAROUS1/ABI3-LIKE1;VP1/ABI3-LIKE 1 (VAL1) (protein, UniProt Q8W4L5 1-790)
chain: MFEVKMGSKMCMNASCGTTSTVEWKKGWPLRSGLLADLCYRCGSAYESSLFCEQFHKDQSGWRECYLCSKRLHCGCIASKVTIELMDYGGVGCSTCACCHQLNLNTRGENPGVFSRLPMKTLADRQHVNGESGGRNEGDLFSQPLVMGGDKREEFMPHRGFGKLMSPESTTTGHRLDAAGEMHESSPLQPSLNMGLAVNPFSPSFATEAVEGMKHISPSQSNMVHCSASNILQKPSRPAISTPPVASKSAQARIGRPPVEGRGRGHLLPRYWPKYTDKEVQQISGNLNLNIVPLFEKTLSASDAGRIGRLVLPKACAEAYFPPISQSEGIPLKIQDVRGREWTFQFRYWPNNNSRMYVLEGVTPCIQSMMLQAGDTVTFSRVDPGGKLIMGSRKAANAGDMQGCGLTNGTSTEDTSSSGVTENPPSINGSSCISLIPKELNGMPENLNSETNGGRIGDDPTRVKEKKRTRTIGAKNKRLLLHSEESMELRLTWEEAQDLLRPSPSVKPTIVVIEEQEIEEYDEPPVFGKRTIVTTKPSGEQERWATCDDCSKWRRLPVDALLSFKWTCIDNVWDVSRCSCSAPEESLKELENVLKVGREHKKRRTGESQAAKSQQEPCGLDALASAAVLGDTIGEPEVATTTRHPRHRAGCSCIVCIQPPSGKGRHKPTCGCTVCSTVKRRFKTLMMRRKKKQLERDVTAAEDKKKKDMELAESDKSKEEKEVNTARIDLNSDPYNKEDVEAVAVEKEESRKRAIGQCSGVVAQDASDVLGVTELEGEGKNVREEPRVSS
binding [4]: binds
binding [1]: binds

B4: NAC50, Q9SQX9 1-447 (protein)
chain: MGRESLAVVSSPPSATAPSTAVSATSLAPGFRFHPTDEELVSYYLKRKVLGKPVRFDAIGEVDIYKHEPWDLAVFSKLKTRDQEWYFFSALDKKYGNGARMNRATNKGYWKATGKDREIRRDIQLLGMKKTLVFHSGRAPDGLRTNWVMHEYRLVEYETETNGSLLQDAYVLCRVFHKNNIGPPSGNRYAPFMEEEWADGGGALIPGIDVRVRVEALPQANGNNQMDQEMHSASKDLININELPRDATPMDIEPNQQNHHESAFKPQESNNHSGYEEDEDTLKREHAEEDERPPSLCILNKEAPLPLLQYKRRRQNESNNNSSRNTQDHCSSTITTVDNTTTLISSSAAAATNTAISALLEFSLMGISDKKENQQKEETSPPSPIASPEEKVNDLQKEVHQMSVERETFKLEMMSAEAMISILQSRIDALRQENEELKKKNASGQAS
binding [2]: binds

Other lines, results leading:

binding [1]: no binding
B1: EMBRYONIC FLOWER 1 (EMF1) (protein, UniProt Q9LYD9 1-1096)
chain: MGSSIKINSISIDLAGAANEIDMVKCDHFSMRGFVAETRERDLRKCWPFSEESVSLVDQQSYTLPTLSVPKFRWWHCMSCIKDIDAHGPKDCGLHSNSKAIGNSSVIESKSKFNSLTIIDHEKEKKTDIADNAIEEKVGVNCENDDQTATTFLKKARGRPMGASNVRSKSRKLVSPEQVGNNRSKEKLNKPSMDISSWKEKQNVDQAVTTFGSSEIAGVVEDTPPKATKNHKGIRGLMECDNGSSESINLAMSGLQRRKSRKVRLLSELLGNTKTSGGSNIRKEESALKKESVRGRKRKLLPENNYVSRILSTMGATSENASKSCDSDQGNSESTDSGFDRTPFKGKQRNRRFQVVDEFVPSLPCETSQEGIKEHDADPSKRSTPAHSLFTGNDSVPCPPGTQRTERKLSLPKKKTKKPVIDNGKSTVISFSNGIDGSQVNSHTGPSMNTVSQTRDLLNGKRVGGLFDNRLASDGYFRKYLSQVNDKPITSLHLQDNDYVRSRDAEPNCLRDFSSSSKSSSGGWLRTGVDIVDFRNNNHNTNRSSFSNLKLRYPPSSTEVADLSRVLQKDASGADRKGKTVMVQEHHGAPRSQSHDRKETTTEEQNNDDIPMEIVELMAKNQYERCLPDKEEDVSNKQPSQETAHKSKNALLIDLNETYDNGISLEDNNTSRPPKPCSSNARREEHFPMGRQQNSHDFFPISQPYVPSPFGIFPPTQENRASSIRFSGHNCQWLGNLPTVGNQNPSPSSFRVLRACDTCQSVPNQYREASHPIWPSSMIPPQSQYKPVSLNINQSTNPGTLSQASNNENTWNLNFVAANGKQKCGPNPEFSFGCKHAAGVSSSSSRPIDNFSSESSIPALHLLSLLDPRLRSTTPADQHGNTKFTKRHFPPANQSKEFIELQTGDSSKSAYSTKQIPFDLYSKRFTQEPSRKSFPITPPIGTSSLSFQNASWSPHHQEKKTKRKDTFAPVYNTHEKPVFASSNDQAKFQLLGASNSMMLPLKFHMTDKEKKQKRKAESCNNNASAGPVKNSSGPIVCSVNRNPADFTIPEPGNVYMLTGEHLKVRKRTTFKKKPAVCKQDAMKQTKKPVCPPTQNA

binding [2]: binds
binding [3]: binds
B2: JUMONJI 14 (JMJ14), H3K4me3 de-methylase, Q8GUI6 1-954 (protein)
chain: MDQLASLAESVAMEEDSEKQSIKGESSLEPDSTPSSPKITARWNPSEACRPLVDDAPIFYPTNEDFDDPLGYIEKLRSKAESYGICRIVPPVAWRPPCPLKEKKIWENSKFPTRIQFIDLLQNREPIKKSTKTKKRKRRRISKIGYTRRKRDSGCDTASSGSSDSEGKFGFQTGPDFTLEEFQKYDEYFKECYFQSEDHPGSKASENKKFKPKVKDLEGEYWRIVEQATDEVEVYYGADLETKKFGSGFPKYKPGYPISEADQYSQCGWNLNNLSRLPGSVLAFESCDISGVIVPWLYVGMCFSTFCWHVEDHHLYSMNYLHTGDPKVWYGIPGNHAESFENVMKKRLPDLFEEQPDLLHQLVTQLSPRILKEEGVPVYRAVQRSGEFILTFPKAYHSGFNCGFNCAEAVNVAPVDWLVHGQNAVEGYSKQRRKSSLSHDKLLLGAAMEATYCLWELSLSKKKTPVIARWKRVCSEDGLLTKAVKKRVQMEEERLNHLQDGFSLRKMEGDFDNKRERECFLCFYDLHMSASSCKCSPNRFACLIHAKDLCSCESKDRYILIRHTLDELWALVRALEGDLDAIDLWASKCRDQYPSQHPRAREYAYLKSAPCIKSRGSSKVQQREQNNLQLVSERLQSDLTSNKEVQLKQDGDSDVNRHGHESERNHVHGITDKSAVTDVKLGVGGKFDEKKISVESQNPHSVSDVGCSELAKKVDGCLGGKDQNAATNRLSLSVELLSSGSLVVKKLWCSKQAIYPKGFKSRVKFLSVLDPTNLTNYISEVLDAGLLGPLFRVSVEDYPTENFSNVSAEKCWQMVTQRLKLEIIKKCDQPVSSLTSLQPLESINGLEMFGFLSPHVIKVVEALDPKHQLEEYWNQKAVKLFGAEPIKEGEKDDTEKGGASDPSLDRDTRLLRGLLKKATPEELVMMHGLLCGETRNTELKEELSTLVDKMEISP

binding [1]: binds
B5: NAC50 (protein, UniProt Q9SQX9 1-447)
chain: B4 chain
